Source: ChEMBL document CHEMBL3988442, “University of Dundee, Small-Polar-MMV Screening Library” (2021).

Sequences of proteins named here, by UniProt entry; tags and fusion partners are left off.
UniProt E9BF75, entry or part of it: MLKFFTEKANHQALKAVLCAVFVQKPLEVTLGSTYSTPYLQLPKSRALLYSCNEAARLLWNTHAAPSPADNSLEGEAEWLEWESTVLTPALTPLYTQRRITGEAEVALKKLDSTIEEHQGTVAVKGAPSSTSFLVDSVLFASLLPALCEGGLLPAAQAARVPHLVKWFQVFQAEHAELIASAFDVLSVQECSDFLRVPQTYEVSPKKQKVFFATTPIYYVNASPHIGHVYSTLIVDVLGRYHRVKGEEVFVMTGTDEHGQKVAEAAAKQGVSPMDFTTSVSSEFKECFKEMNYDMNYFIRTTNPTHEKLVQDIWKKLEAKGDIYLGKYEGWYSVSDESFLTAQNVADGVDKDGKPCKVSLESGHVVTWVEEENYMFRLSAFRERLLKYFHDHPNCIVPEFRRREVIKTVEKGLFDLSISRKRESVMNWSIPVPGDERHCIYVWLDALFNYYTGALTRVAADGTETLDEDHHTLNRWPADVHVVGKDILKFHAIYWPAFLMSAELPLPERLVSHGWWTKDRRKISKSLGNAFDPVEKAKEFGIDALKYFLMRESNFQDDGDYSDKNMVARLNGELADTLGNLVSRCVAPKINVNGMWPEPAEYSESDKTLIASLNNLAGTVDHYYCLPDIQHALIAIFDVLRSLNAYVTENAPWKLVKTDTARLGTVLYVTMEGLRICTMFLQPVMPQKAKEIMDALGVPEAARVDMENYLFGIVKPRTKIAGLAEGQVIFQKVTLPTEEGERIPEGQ

A: 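Primary screen of methionyl-tRNA synthetase; the read-out is not stated. Target: Methionyl-tRNA synthetase (putative), Leishmania donovani (UniProt E9BF75). The test concentration is not given. Values are per cent inhibition. About 68,000 compounds were tested under these conditions; 0.035% (about 24) showed 50% or more at least once.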
B: 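Assay on Mycobacterium tuberculosis, filed only as a heat shock assay from Cornell; the read-out is not stated. The concentration is filed as 10 mM, unlikely as a test dose, so the dose is not known. The record gives no direction; compounds that gave an IC50 in retests scored well above the rest, so higher reads as stronger inhibition. About 69,000 compounds were tested under these conditions; 1.4% (about 930) showed 50% or more at least once.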

All values are in %.
How 0% and 100% were set is not recorded. Most values in the screen are low, and negative values occur.
Compounds were drawn at random from those tested, without regard to their results.
A dash means the value is not listed here; it may have been measured.

structure	A	B
Cc1ccc(C(=O)CN2C(=O)c3ccccc3CS2(=O)=O)c(C)c1	-6.522	-2.368
Cc1cnn(CC2CN(Cc3nnc(C(C)C)o3)CCO2)c1 (configuration not stated)	11.45	-7.708
O=C(CCc1nc(Cl)n[nH]1)N1C[C@@H](CN2CCCCCC2)[C@@H](CO)C1	11.23	-15.89
CC(C)n1cc(S(=O)(=O)NCCc2nnc3ccccn23)cn1	11.52	-21.24
CCC(CNC(=O)c1ccccc1OC)N1CCc2ccccc2C1 (configuration not stated)	-2.717	-4.198
COc1ccccc1CC(=O)NC(CC(=O)O)c1ccc(C)cc1 (configuration not stated)	7.754	12.97
O=C1O[C@@H]2CN(S(=O)(=O)N3CCCC3)C[C@@H]2N1CCc1cccc(Cl)c1	16.2	-
CCCN1CCC(NC(=O)c2csc(C)c2C)CC1	6.529	7.732
CC(NC(=O)CCn1c(=O)oc2ccccc21)c1ccccn1 (configuration not stated)	11.21	-6.717
COc1c(C)cnc(CN2CCC(N(C)S(C)(=O)=O)CC2)c1C	20.45	-2.316
Cc1occc1C(=O)N1CCC2(CCN(Cc3ccccn3)C2=O)C1.O=C(O)C(F)(F)F (configuration not stated)	-	-15.16
O=C(CCN1CCCO1)NC1CCCN(CC2CCCCC2)C1 (configuration not stated)	-0.5115	-5.948
O=C(O)C(F)(F)F.O=C(O)C(F)(F)F.O=C(O)C(F)(F)F.c1cncc(C[C@H]2[C@H](N3CCOCC3)CCN2Cc2nccs2)c1	-	-39.92
[H][C@]12CN(Cc3cccnc3)C[C@@]1([H])S(=O)(=O)CC[C@@H]2C(=O)NCC(C)C	-	-11.7
C=C(C)CN1CCN(CCC(=O)Nc2ccccc2C(N)=O)CC1	19.26	-23.87
Cc1nc(CN2CCc3nc(NC(C)C)nc(C)c3C2)cs1	28.99	99.63
CO[C@H]1CCN(S(=O)(=O)c2cn(C)cn2)[C@H]1Cc1cccnc1.O=C(O)C(F)(F)F.O=C(O)C(F)(F)F	-	4.46
CCc1nc(C)ncc1C(=O)N1CC(=O)N(C)c2ccccc21	22.78	-3.075
Cc1cc(NCc2ccccc2)nc2[nH]nc(N)c12	11.82	1.63
NC(=O)COc1cccc(CN2CCCC2c2ccc[nH]2)c1 (configuration not stated)	9.317	-7.979
O=C(Cn1ccc(=O)[nH]c1=O)Nc1ccccc1F	5.686	-4.319
COc1ccc(Cl)cc1CC(=O)N1CCN(CC(C)(C)O)CC1	13.66	-13.87
O=C(c1ccncc1)N1CCN(c2ccc(F)cc2Cl)CC1	17.83	-14.96
Nc1nnc(SCC(=O)c2cc3c(cc2Cl)NC(=O)C3)s1	19.24	9.218
CCOc1ccc(SCCNS(=O)(=O)CC)cc1	11.75	17.15
COCc1ncc(CN2CC[C@@H](NC(=O)c3cccnc3)[C@H](O)C2)cn1	-1.983	-10.39
CC(C(=O)Nc1cccc(C(F)(F)F)c1)N(C)CCN1CCOCC1 (configuration not stated)	11.85	-25.38
CCN1CCN(C(=O)c2scnc2C)CC1	4.507	-3.259
COCCCN(Cc1cnc(-c2cccs2)nc1)C1CCN(C)CC1	11.75	-5.152
C[C@]1(O)CN(Cc2ncccc2F)CC[C@@H]1Oc1ccccc1	17.42	21.04
CN(Cc1cnc(N)nc1)C(=O)C1CC(=O)N(Cc2ccncc2)C1 (configuration not stated)	9.964	21.89
CCOc1ccc(CN2CCC(c3[nH]ncc3C)C2)cc1CO (configuration not stated)	12.73	4.356
CC(=O)NC(C)(C)C(=O)Nc1ncc(Cc2ccc(C)c(F)c2)s1	20.83	-1.943
O=C(NCc1cnn2cccnc12)C1CC(=O)N(Cc2cccnc2)C1 (configuration not stated)	4.02	-17.24
Cc1cnn(CC2CCCCN2C(=O)CC(F)(F)F)c1 (configuration not stated)	19.2	9.488
Cn1cc(S(=O)(=O)NCc2ccc(F)cc2)cn1	-35.93	-7.687
Cc1ccccc1-c1cc(NC(=O)NC2CCC(O)CC2)n(CCO)n1 (configuration not stated)	11.24	3.712
Cc1ccc(S(=O)(=O)NC(=O)CCc2cscn2)cc1Cl	9.677	-15.57
Cn1nc(Cl)cc1C(=O)N1CCC(C(=O)c2nc3ccccc3s2)CC1	2.188	-10.64
CCS(=O)(=O)NC[C@]12COC[C@H]1CN(Cc1cccnc1)C2	1.46	-
CCOC(=O)CNC(=O)C1CN(C(=O)c2cnccn2)C1	7.194	13.19

Once more, the final 2:

{"structure": "CCS(=O)(=O)NC[C@]12COC[C@H]1CN(Cc1cccnc1)C2", "A": 1.46}
{"structure": "CCOC(=O)CNC(=O)C1CN(C(=O)c2cnccn2)C1", "A": 7.194, "B": 13.19}